Data published in publication PMC12255758.

Columns and labels:
[1] = molecular target: Flag-tagged STUB1 deletion mutant lacking the U-box domain; assay: co-IP; HEK293T co-transfected with HA-GOT2 and Flag-tagged STUB1 (full length or deletion mutants); lysates immunoprecipitated by the tags (anti-Flag magnetic beads for the deletion mutants, 24 h), blotted for HA and Flag
[2] = molecular target: Flag-tagged STUB1 deletion mutant lacking the TPR domain; assay: as above

B1: HA-tagged GOT2 (enzyme, UniProt P00505 30-430)
chain: SSWWTHVEMGPPDPILGVTEAFKRDTNSKKMNLGVGAYRDDNGKPYVLPSVRKAEAQIAAKNLDKEYLPIGGLAEFCKASAELALGENSEVLKSGRFVTVQTISGTGALRIGASFLQRFFKFSRDVFLPKPTWGNHTPIFRDAGMQLQGYRYYDPKTCGFDFTGAVEDISKIPEQSVLLLHACAHNPTGVDPRPEQWKEIATVVKKRNLFAFFDMAYQGFASGDGDKDAWAVRHFIEQGINVCLCQSYAKNMGLYGERVGAFTMVCKDADEAKRVESQLKILIRPMYSNPPLNGARIAAAILNTPDLRKQWLQEVKVMADRIIGMRTQLVSNLKKEGSTHNWQHITDQIGMFCFTGLKPEQVERLIKEFSIYMTKDGRISVAGVTSSNVGYLAHAIHQVTK
What does the source list for B1?
binding [1]: no binding; binding [2]: binds

These are yes or no findings as the source states them, for the method shown. Binding seen in cells or lysates may run through a third protein. For some assays here: Binding calls can cover weak binding; strength is not graded here. Where a sequence is shown, tags or fusion partners need not be part of it.
